Here are results for one substance from PMC11091053.

The chains behind the UniProt entries cited, without tags or fusion partners. Where a name states a change or a piece, a line headed by the entry shows the natural chain unless it says otherwise.
UniProt P62897: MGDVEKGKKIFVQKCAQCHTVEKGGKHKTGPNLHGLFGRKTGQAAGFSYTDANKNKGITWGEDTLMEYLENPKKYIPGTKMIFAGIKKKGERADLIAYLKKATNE

Results are given in words; binding and its absence hold for the method and conditions named. In cells and extracts the contact can be indirect. A yes stands for co-enrichment or nearness to the bait. Other partners may have been found.

This experiment addresses T1, Pirh2 (p53-induced RING-H2 protein), endogenous in N2A cells (mouse (endogenous in N2A)) (UniProt Q9CR50).
T1 sequence: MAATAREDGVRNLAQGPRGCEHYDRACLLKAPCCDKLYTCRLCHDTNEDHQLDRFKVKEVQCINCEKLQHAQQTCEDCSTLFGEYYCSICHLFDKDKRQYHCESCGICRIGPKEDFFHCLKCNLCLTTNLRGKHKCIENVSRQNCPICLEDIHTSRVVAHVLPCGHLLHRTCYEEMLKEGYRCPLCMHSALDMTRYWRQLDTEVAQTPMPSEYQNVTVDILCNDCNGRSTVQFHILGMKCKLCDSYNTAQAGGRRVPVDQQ
The experiment can be described thus: affinity purification with mass spectrometry; co-immunoprecipitation with Pirh2 antibody from N2A cell lysate (control and treated, with or without MG132) and tissue lysates of cortex and hippocampus; SDS-PAGE bands, trypsin digestion, MALDI-TOF/TOF, MASCOT.

For “cytochrome c, endogenous in N2A cells (from UniProt P62897 1-105)”, the binding result was “binds”.
